Among the data in paper PMC4765788, “Role of a chalcone isomerase-like protein in flavonoid biosynthesis in Arabidopsis thaliana” (Journal of Experimental Botany, 2015) are binding values, retold here.

These are yes or no findings as the source states them, for the method shown. Some results given as binding are weak or reduced against the parent protein; the word gives no strength. Tags and fused reporters may be left off the sequences shown.

The target in test [1] is T1, BD-TT2 (Arabidopsis thaliana) (UniProt Q9FJA2).
T1 sequence: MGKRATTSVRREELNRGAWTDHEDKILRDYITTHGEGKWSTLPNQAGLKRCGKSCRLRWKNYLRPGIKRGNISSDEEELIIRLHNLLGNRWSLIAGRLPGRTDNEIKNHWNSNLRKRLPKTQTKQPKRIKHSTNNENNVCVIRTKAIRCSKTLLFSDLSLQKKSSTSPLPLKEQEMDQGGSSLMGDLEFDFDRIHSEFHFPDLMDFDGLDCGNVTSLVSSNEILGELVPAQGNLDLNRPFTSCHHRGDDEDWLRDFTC
Nature of the test: two-hybrid; yeast co-transformed with BD and AD fusions; growth on SD-Trp-Leu-His; also tested on SD-Trp-Leu-His-Ade.

Test [2] deals with T2, BD-CHIL (Arabidopsis thaliana) (UniProt Q8VZW3).
T2 sequence: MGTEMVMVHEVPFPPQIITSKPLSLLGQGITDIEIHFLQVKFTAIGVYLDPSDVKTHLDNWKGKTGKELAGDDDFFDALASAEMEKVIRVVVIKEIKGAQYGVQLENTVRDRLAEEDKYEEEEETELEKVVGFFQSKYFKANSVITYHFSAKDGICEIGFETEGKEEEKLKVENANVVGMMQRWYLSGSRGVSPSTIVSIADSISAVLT
The description is as above.

B1: AD-TT8 (protein, UniProt Q9FT81 1-518)
chain: MDESSIIPAEKVAGAEKKELQGLLKTAVQSVDWTYSVFWQFCPQQRVLVWGNGYYNGAIKTRKTTQPAEVTAEEAALERSQQLRELYETLLAGESTSEARACTALSPEDLTETEWFYLMCVSFSFPPPSGMPGKAYARRKHVWLSGANEVDSKTFSRAILAKSAKIQTVVCIPMLDGVVELGTTKKVREDVEFVELTKSFFYDHCKTNPKPALSEHSTYEVHEEAEDEEEVEEEMTMSEEMRLGSPDDEDVSNQNLHSDLHIESTHTLDTHMDMMNLMEEGGNYSQTVTTLLMSHPTSLLSDSVSTSSYIQSSFATWRVENGKEHQQVKTAPSSQWVLKQMIFRVPFLHDNTKDKRLPREDLSHVVAERRRREKLNEKFITLRSMVPFVTKMDKVSILGDTIAYVNHLRKRVHELENTHHEQQHKRTRTCKRKTSEEVEVSIIENDVLLEMRCEYRDGLLLDILQVLHELGIETTAVHTSVNDHDFEAEIRAKVRGKKASIAEVKRAIHQVIIHDTNL
For the molecule B1, the binding result in test [1] is recorded as “binds”.

B2: recombinant TT5 protein (chalcone isomerase), His-tagged (enzyme, Arabidopsis thaliana, UniProt P41088 1-246, looked up)
chain: MSSSNACASPSPFPAVTKLHVDSVTFVPSVKSPASSNPLFLGGAGVRGLDIQGKFVIFTVIGVYLEGNAVPSLSVKWKGKTTEELTESIPFFREIVTGAFEKFIKVTMKLPLTGQQYSEKVTENCVAIWKQLGLYTDCEAKAVEKFLEIFKEETFPPGSSILFALSPTGSLTVAFSKDDSIPETGIAVIENKLLAEAVLESIIGKNGVSPGTRLSVAERLSQLMMKNKDEKEVSDHSVEEKLAKEN
notes: TT5, chalcone isomerase, Arabidopsis thaliana, At3g55120; ORF cloned into pQE-30; pQE-30 usually adds an N-terminal His6 tag (surmised); also called CHI
Turning to B2, in test [2], the binding result is on record as “binds”.
